Measured values: PMC12670160, “A drug-repurposing screen of FDA- and EMA-approved drugs identifies two NF-κB inhibitors active against eumycetoma” (Journal of Antimicrobial Chemotherapy, 2025)
Where a name gives a salt, the structure may show the parent alone. Read-outs that look alike come from different tables or passages of the source. In all, about 5,300 compounds went through this assay and about 130 (2.5%) showed an effect of 50% or more. The list shows a part of the results.

Test system: M. mycetomatis strain mm55
Details: primary screen, metabolic activity vs growth control, 96 h, 2 µM, inhibitor

SMILES	% viability	% viability (Madurella mycetomatis metabolic activity at 2µM (%))
CN(C)C(=O)[C@H](O)[C@H](Cc1ccccc1)NC(=O)c1cc2cc(Cl)ccc2[nH]1 [ONC0005223, cp91149]	141.1%	–
CC1(C(=O)O)NCCc2cc(O)c(O)cc21 (centres unmarked) [ONC0004346, salsolinol1carboxylicacid]	112.4%	–
Cl/C(=C\n1cncn1)c1ccc(Cl)cc1Cl [ONC0000796, loreclezole]	78.82%	–
Cl.Cn1cc(C(=O)[C@@H]2CCc3nc[nH]c3C2)c2ccccc21 [ONC0005309, ramosetron hydrochloride]	116%	–
Cc1cc(CN2CCN(c3c(Br)cnc4nc(-c5ccc(N6CCN(C)CC6)cc5)[nH]c34)CC2)no1 [ONC0000867, cct137690]	70.67%	–
Cc1ccc(=O)n(-c2ccccc2)c1 [ONC0000221, pirfenidone]	50.61%	–
CN1CCC(=C2c3ccccc3Sc3ccccc32)CC1 [ONC0000674, pimethixene maleate]	120.3%	–
Nc1c2ccccc2nc2ccccc12 [ONC0003246, aminacrine]	117.4%	–
CN(C)C(=O)C(=O)c1cn(C)c2cc(Cl)c(C(=O)N3CCC(Cc4ccc(F)cc4)CC3)cc12 [ONC0001387, sx011]	68.08%	–
O=C(NCc1ccccn1)Nc1nnc(-c2ccco2)o1 [ONC0003547, nk252]	86.97%	–
COC(=O)CCC(=O)CN [ONC0003503, methyl aminolevulinatehcl]	72.09%	–
CCCNC(=O)Nc1ccc(Oc2ncnc3cc(OC)c(OC)cc23)cc1Cl [ONC0004921, krn 633]	115.3%	–
CC1(C)CCC(C)(C)c2c1cc(C(=O)Nc1cc(F)c(C(=O)O)c(F)c1)c(O)c2Cl [ONC0001249, agn 195183]	77.74%	–
CCCCN(CCCC)CC(O)c1cc(Cl)cc2c1-c1ccc(Cl)cc1/C2=C/c1ccc(Cl)cc1 (centres unmarked) [ONC0000941, lumefantrine]	75.53%	–
Cc1cn(-c2cc(NC(=O)c3ccc(C)c(Nc4nccc(-c5cccnc5)n4)c3)cc(C(F)(F)F)c2)cn1 [ONC0004624, nilotinib amn107]	69.14%	–
CC[C@H](CC[C@@H](C)[C@H]1CC[C@H]2[C@@H]3CC=C4C[C@@H](O)CC[C@]4(C)[C@H]3CC[C@]12C)C(C)C [ONC0004996, sitosterol]	86.55%	–
Cc1cc(O)cc(C)c1Cl [ONC0000774, chloroxylenol]	60.66%	–
CC(=O)N(c1onc(C)c1C)S(=O)(=O)c1ccc(N)cc1 [ONC0003957, sulfisoxazole acetyl]	60.72%	–
O=C(NCCCCN1CCN(c2cccc(Cl)c2Cl)CC1)c1ccc2c(c1)Cc1ccccc1-2 [ONC0001342, ngb2904]	121.8%	–
Oc1cccc(O)c1 [ONC0003368, resorcinol]	79.24%	–
CC(Cc1ccc(O)cc1)NCC(O)c1cc(O)cc(O)c1 (centres unmarked) [ONC0003251, fenoterol hydrobromide]	75.98%	–
CC(N)CCCC(C)(C)O (centres unmarked) [ONC0002831, heptaminol hydrochloride]	128.5%	–

SMILES	% viability	% viability (Madurella mycetomatis metabolic activity at 2µM (%))
CN1CCCN=C1/C=C/c1cccc(O)c1 [ONC0005548, oxantel pamoate]	79.63%	–
N#CCC(=O)NN [ONC0002355, cyacetacide]	110.9%	–
CC(C)(C)c1ccc(S(=O)(=O)/C=C/C#N)cc1 [bay117085]	1.843%	–
COc1nccnc1NS(=O)(=O)c1ccc(N)cc1 [ONC0003783, sulfametopyrazine]	85.99%	–
COc1ccc2cc(C(C)C(=O)Oc3ccc(C(N)=S)cc3)ccc2c1 (centres unmarked) [ONC0000870, atb346]	83.85%	–
CCN1C[C@H](C)n2c(c(O)c3c(=O)n(Cc4ccc(F)c(Cl)c4)nc(C(=O)NC)c32)C1=O [ONC0005069, mk2048]	69.52%	–
O=C(O)c1ccccc1S [ONC0003836, omercaptobenzoicacid]	67.33%	–
Clc1ccc2c(N3CCN(CCCN4CCN(c5ccnc6cc(Cl)ccc56)CC4)CC3)ccnc2c1 [ONC0003887, 13bis47chloro4quinolinyl1piperazinylpropane tetraphosphate tetrahydrate]	72.49%	–
C1CCc2nnnn2CC1 [ONC0005284, pentylenetetrazol]	72.53%	–
CC(=O)c1c(C)c2cnc(Nc3ccc(N4CCNCC4)cn3)nc2n(C2CCCC2)c1=O [ONC0004470, pd 0332991 palbociclib hcl]	138.7%	–
CN(C)c1ccc2c(c1)Sc1cc(N(C)C)ccc1N2.CS(=O)(=O)O [ONC0001830, leucomethylene blue mesylate]	74.38%	–
C[C@H]1CO[C@@H]2Cn3cc(C(=O)NCc4ccc(F)cc4F)c(=O)c(O)c3C(=O)N12 [ONC0004326, cabotegravir gsk744 gsk1265744]	131.5%	–
CC(C)OC(=O)C(C)(C)Oc1ccc(C(=O)c2ccc(Cl)cc2)cc1 [ONC0003204, fenofibrate]	122.8%	–
OCCOc1ccc(/C(=C(/CCCl)c2ccccc2)c2ccccc2)cc1 [ONC0005170, ospemifene]	96.53%	–
C=C1CC/C=C(\C)CC[C@@H]2[C@@H]1CC2(C)C [ONC0002179, gcaryophyllene]	84.29%	–
Cc1c(O)c(=O)n(-c2ccccc2)n1C [ONC0002305, 4hydroxyphenazone]	52.96%	–
NCCCC[C@H](NC(=O)[C@@H](Cc1cc(Br)c(O)c(Br)c1)NC(=O)N1CCC(N2Cc3ccccc3NC2=O)CC1)C(=O)N1CCN(c2ccncc2)CC1 [ONC0002023, olcegepant]	109.7%	–
Nc1nc(=O)n([C@H]2C[C@H](O)[C@@H](CO)O2)cc1Cl [ONC0003690, 5chloro2deoxycytidine]	55.79%	–
CNC(=O)c1ccc(Nc2ncc(C(F)(F)F)c(NCc3nccnc3N(C)S(C)(=O)=O)n2)cc1 [ONC0002028, defactinib]	71.09%	–
CCOC(=O)[C@@H](N)CCC(=O)N[C@@H](CSCc1ccccc1)C(=O)N[C@@H](C(=O)OCC)c1ccccc1 [ONC0000839, ezatiostat]	71.7%	–
Cn1c(-c2ccccc2)nnc1S(C)(=O)=O [ONC0003665, mdl27531]	82.05%	–
Cc1cc(C(=O)O)sc1C(N)C(=O)O (centres unmarked) [ONC0000056, 3matida]	81.23%	–

SMILES	% viability	% viability (Madurella mycetomatis metabolic activity at 2µM (%))
CN1C(=O)C(Cc2c[nH]c3ccccc23)NC1=S (centres unmarked) [ONC0003684, necrostatin1]	40.84%	–
CCC[C@H](N[C@H]1CCc2cc(F)cc(F)c2C1)C(=O)Nc1cn(C(C)(C)CNCC(C)(C)C)cn1 [ONC0002442, nirogacestat]	128.8%	–
CCOC(=S)SSC(=S)OCC [ONC0002273, dixanthogen]	55.69%	–
Cc1cc2c(s1)Nc1ccccc1N=C2N1CCN(C)CC1 [ONC0004243, olanzapine]	89.12%	–
CCN(CC)CCOc1ccc(Nc2ncc3cc(-c4c(Cl)cccc4Cl)c(=O)n(C)c3n2)cc1 [ONC0001435, pd166285]	73.8%	–
NS(=O)(=O)c1ccc(S(=O)(=O)Nc2cccc3c(Cl)c[nH]c23)cc1 [ONC0005426, indisulam]	79.71%	–
O=C1c2ccccc2C(=O)C1c1ccc(Br)cc1 [ONC0004017, bromindione]	66.39%	–
NC(=O)CC[C@H](N)C(=O)O [ONC0004823, lglutamine]	90.98%	–
COc1cc(N)c(Cl)cc1C(=O)N[C@@H]1CCN(CCCOc2ccc(F)cc2)C[C@@H]1OC (racemic) [ONC0002671, cisapride]	79.76%	–
CCn1c(-c2nonc2N)nc2c(C#CC(C)(C)O)ncc(OC[C@H]3CCCNC3)c21 [ONC0004928, gsk690693]	97.5%	–
O=S(=O)(O)Oc1ccc(C(c2ccc(OS(=O)(=O)O)cc2)c2ccccn2)cc1 [ONC0004819, sodium picosulfate]	71.74%	–
COc1cc2c(NC3CCN(C)CC3)nc(N3CCCN(C)CC3)nc2cc1OCCCN(C)C [ONC0000276, unc0224]	85.54%	–
CSc1ccc(C(=O)N[C@@H]2CCCC[C@@H]2NC(=O)CNC(=O)c2cc(C(F)(F)F)ccc2NC(=O)NC(C)C)cc1 [ONC0000833, bmsccr222]	73.52%	–
CCCN1CCC[C@@H]2Cc3nc(N)ncc3C[C@H]21 [ONC0001950, ly1635022hcl]	76.14%	–
O=C(O)c1ccccc1O [ONC0000613, salicylic acid]	77.17%	–
O=c1oc2cc(O)ccc2s1 [ONC0002844, tioxolone]	91.28%	–
Cc1[nH]nc(C(F)(F)F)c1Cc1sc2c(c1C(=O)N1C[C@](C)(O)CO1)c(=O)n(C)c(=O)n2C(C)C [ONC0002039, azd3965]	59.03%	–
CCCCCCCCCCCCOS(=O)(=O)O [ONC0004120, dodecylsulfate]	–	112%
COc1cc2ncnc(Nc3cccc(Cl)c3)c2cc1OC [ONC0005034, ag1478 tyrphostin ag1478]	64.21%	–
CCCCc1ccc2[nH]c(NC(=O)OC)nc2c1 [ONC0002804, parbendazole]	94.34%	–
O=C(O)[C@H](CC(=O)N1C[C@H]2CCCC[C@H]2C1)Cc1ccccc1 [ONC0004972, mitiglinide calcium]	100.8%	–

Part of the list above in order of formula weight, largest number first:
SMILES	% viability	% viability (Madurella mycetomatis metabolic activity at 2µM (%))
CCN(CC)CCOc1ccc(Nc2ncc3cc(-c4c(Cl)cccc4Cl)c(=O)n(C)c3n2)cc1 [ONC0001435, pd166285]	73.8%	–
COc1cc2c(NC3CCN(C)CC3)nc(N3CCCN(C)CC3)nc2cc1OCCCN(C)C [ONC0000276, unc0224]	85.54%	–
CCn1c(-c2nonc2N)nc2c(C#CC(C)(C)O)ncc(OC[C@H]3CCCNC3)c21 [ONC0004928, gsk690693]	97.5%	–
